# For at least one compound, name, drawing or mass did not settle the structure.
# Assays:
# Experiment in all cases: Turf selectivity evaluation, visual phytotoxicity, glasshouse pots
# Type in all cases: in vivo
# [1] = tested on: Poa annua var. Reptans (POAAN, Annual bluegrass, True Putt); conditions: at all three rates tested (1500, 3000, 6000 g ai ha^-1)
# Experimental: (§1) Turf selectivity evaluations were performed on the most important cool-season turf varieties, across 4 application rates with two replications contained within a factorial design. Sarmentine was applied at 0, 1500, 3000, and 6000 g ai ha^−1 on Sep. 11, 2010 using a spray volume of 800 L ha^−1 with 0.2% V/V x-77 adjuvant. The solution was delivered with LU 90-02S Lechler nozzles at 2.58 bars with an application speed of 0.96 km hr^−1.
# (§2) Plants were grown in 9 cm diameter pots using Les Barges soil, previously characterized as containing 25.4% clay; 7.1% loam, 67.5% sand, 7% CaCO3, 2.4% organic matter, and pH 7.5. Pots were fertilized with Oscarna Rasaflor at 100 g m-2 at seeding. Plants were grown throughout the experiment with day/night temperatures of 23° C./15° C. with relative humidity of between 50-60%.
# (§3) Turf species (Table 1) were visually evaluated for symptoms of phytotoxicity (%) using the untreated control as a bench-mark for comparison at 7, 14, 21, and 28 days after application (DAA). Turfgrass species were mown at 13 DAA.
# [2] = tested on: Lolium perenne (LOLPE, Perennial Ryegrass, Citation Fore); conditions: contrast at 6000 g ai ha^-1
# Experimental: as §1, §2, §3
# [3] = tested on: Agrostis stolonifera (AGSST, Creeping Bentgrass, Pennlinks); conditions: contrast at 6000 g ai ha^-1
# Experimental: as §1, §2, §3
compound,measurement,setting,value
"CCCCC/C=C/C=C/C(=O)N1CCCC1 [sarmentine, N-(2E,4E-Decadienoyl)pyrrolidine]","levels of phyto-toxicity for POANN compared to AGSST, FESAR, LOLPE, and POAPR",[1],significantly higher
same,"injury to LOLPE relative to AGSST, FESAR, and POAPR",[2],significantly more injurious
same,"phyto-toxicity of AGSST compared to FESAR, LOLPE, and POAPR",[3],No phyto-toxicity differences

# Source: patent US20160000074A1, “HERBICIDAL COMPOSITION AND METHOD OF USE THEREOF” (SYNGENTA PARTICIPATIONS AG, priority 2013, published 2016)
